This assay deals with PARP1 (human (endogenous in SKOV3)) (UniProt P09874). As to the kind of experiment: affinity purification with mass spectrometry; Co-IP for PARP1 followed by MS; cell line not stated.

Protein sequences, listed by entry. Tags and fused reporters are not part of them.
UniProt P09874: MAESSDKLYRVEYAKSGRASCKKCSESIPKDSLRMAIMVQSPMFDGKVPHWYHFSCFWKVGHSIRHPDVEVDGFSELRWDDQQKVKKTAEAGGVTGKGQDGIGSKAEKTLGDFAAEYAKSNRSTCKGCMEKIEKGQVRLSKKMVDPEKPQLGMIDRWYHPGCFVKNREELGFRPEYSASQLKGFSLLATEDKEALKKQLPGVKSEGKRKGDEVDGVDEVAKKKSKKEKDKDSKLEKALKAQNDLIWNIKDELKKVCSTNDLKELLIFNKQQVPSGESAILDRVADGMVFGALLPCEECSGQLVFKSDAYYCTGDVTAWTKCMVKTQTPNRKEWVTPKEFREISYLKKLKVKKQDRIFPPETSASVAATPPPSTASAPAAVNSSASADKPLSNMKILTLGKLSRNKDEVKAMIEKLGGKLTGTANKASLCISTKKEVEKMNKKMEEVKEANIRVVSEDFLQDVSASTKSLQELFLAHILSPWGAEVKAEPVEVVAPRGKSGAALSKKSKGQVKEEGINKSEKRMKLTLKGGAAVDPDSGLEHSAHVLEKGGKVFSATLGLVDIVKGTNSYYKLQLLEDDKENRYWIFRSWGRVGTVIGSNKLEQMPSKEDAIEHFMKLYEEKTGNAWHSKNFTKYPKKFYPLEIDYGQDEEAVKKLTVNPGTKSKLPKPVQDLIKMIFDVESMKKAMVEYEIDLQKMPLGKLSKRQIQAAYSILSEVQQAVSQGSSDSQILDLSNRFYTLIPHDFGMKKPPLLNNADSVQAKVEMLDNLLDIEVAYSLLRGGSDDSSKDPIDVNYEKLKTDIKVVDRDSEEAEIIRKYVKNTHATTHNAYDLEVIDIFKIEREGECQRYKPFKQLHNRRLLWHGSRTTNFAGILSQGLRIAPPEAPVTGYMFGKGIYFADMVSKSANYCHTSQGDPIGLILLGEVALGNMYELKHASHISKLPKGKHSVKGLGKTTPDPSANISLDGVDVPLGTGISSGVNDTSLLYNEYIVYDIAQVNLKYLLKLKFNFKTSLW

Results are given in words; binding and its absence hold for the method and conditions named. Binding seen in cells or lysates may run through a third protein. These calls come from enrichment with a bait or labelling near it, and not all partners need be listed.

Take Ku80 (from UniProt P13010 1-732): the binding result is reported as “binds”.

The record behind these values is PMC11380446.
